Source: article PMC8216288

The chains behind the UniProt entries cited, without tags or fusion partners.
UniProt O14744: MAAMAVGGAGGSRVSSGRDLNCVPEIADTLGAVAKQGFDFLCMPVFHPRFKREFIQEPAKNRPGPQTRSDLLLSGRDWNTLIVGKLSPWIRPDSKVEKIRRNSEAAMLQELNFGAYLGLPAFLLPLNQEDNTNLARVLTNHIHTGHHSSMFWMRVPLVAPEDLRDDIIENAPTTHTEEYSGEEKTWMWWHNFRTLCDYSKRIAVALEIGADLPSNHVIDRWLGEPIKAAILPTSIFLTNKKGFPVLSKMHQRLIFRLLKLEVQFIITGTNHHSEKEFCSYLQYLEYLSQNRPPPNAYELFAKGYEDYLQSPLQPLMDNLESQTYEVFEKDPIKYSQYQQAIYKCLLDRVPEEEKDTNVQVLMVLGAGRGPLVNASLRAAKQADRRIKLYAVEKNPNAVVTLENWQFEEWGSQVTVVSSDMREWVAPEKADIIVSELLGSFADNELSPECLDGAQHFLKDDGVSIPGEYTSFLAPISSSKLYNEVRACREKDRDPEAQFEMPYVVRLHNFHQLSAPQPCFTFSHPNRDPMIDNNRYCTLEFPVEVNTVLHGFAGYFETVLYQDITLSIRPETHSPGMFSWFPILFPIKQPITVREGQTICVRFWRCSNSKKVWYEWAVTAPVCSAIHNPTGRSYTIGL
UniProt P62318: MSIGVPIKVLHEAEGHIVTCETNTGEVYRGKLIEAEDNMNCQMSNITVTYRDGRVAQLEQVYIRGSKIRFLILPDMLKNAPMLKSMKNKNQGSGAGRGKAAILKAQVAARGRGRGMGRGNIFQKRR
UniProt Q9BQA1: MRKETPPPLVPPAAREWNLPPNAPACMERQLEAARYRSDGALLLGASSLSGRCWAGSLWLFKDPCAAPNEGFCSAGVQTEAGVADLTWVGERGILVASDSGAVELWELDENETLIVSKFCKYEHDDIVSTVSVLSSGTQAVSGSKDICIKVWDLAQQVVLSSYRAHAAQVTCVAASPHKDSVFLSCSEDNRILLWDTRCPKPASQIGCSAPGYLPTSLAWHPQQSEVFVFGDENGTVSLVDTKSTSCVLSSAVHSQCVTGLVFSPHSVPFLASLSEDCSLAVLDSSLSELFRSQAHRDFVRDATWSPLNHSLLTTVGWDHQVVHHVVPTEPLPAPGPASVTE

Columns and labels:
[1] = target: GST-pICln S193, 195, 197A (phospho-inactivating alanine mutant) (human) (UniProt P54105); assay: affinity purification with mass spectrometry; 5 μg GST-pICln wt or mutants incubated with 1 mg HEK293T S100 extract overnight at 4°C, glutathione sepharose 4B for 4 h, on-bead digestion, relative quantification by LC-MS/MS normalised to pICln; only the target purified
[2] = target: GST-pICln wild type (human) (UniProt P54105); assay: as above
[3] = target: T1, GFP-ULK1 (Unc-51-like kinase 1, full-length) (human) (UniProt O75385); assay: affinity purification with mass spectrometry; co-immunopurification of inducible GFP-ULK1 from Flp-In T-REx 293 cells and mass spectrometry
T1 sequence: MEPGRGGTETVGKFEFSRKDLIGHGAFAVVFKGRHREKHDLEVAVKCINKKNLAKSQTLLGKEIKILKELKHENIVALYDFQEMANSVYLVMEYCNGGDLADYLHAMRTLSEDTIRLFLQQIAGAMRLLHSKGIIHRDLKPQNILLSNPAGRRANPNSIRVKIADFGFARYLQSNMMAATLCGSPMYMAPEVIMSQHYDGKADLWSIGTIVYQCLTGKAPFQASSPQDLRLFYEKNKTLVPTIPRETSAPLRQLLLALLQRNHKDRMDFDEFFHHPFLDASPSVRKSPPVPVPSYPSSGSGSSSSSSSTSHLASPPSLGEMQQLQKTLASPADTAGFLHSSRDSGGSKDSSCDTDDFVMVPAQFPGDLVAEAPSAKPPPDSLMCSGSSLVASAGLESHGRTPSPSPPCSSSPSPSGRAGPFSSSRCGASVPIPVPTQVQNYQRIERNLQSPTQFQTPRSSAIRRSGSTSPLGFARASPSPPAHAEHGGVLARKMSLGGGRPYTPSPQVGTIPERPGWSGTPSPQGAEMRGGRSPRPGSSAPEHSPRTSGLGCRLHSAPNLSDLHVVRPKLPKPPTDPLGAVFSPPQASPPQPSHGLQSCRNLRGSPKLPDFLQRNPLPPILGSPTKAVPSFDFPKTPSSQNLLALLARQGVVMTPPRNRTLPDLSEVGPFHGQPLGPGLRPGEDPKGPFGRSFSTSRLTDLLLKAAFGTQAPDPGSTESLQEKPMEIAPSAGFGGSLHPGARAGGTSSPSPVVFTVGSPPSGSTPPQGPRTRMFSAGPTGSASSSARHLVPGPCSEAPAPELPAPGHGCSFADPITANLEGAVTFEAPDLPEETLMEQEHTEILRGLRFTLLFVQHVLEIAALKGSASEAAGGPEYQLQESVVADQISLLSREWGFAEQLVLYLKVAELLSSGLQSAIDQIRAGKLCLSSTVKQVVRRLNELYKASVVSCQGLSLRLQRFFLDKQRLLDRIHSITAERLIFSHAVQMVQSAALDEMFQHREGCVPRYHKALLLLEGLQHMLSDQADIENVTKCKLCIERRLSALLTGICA

[4] = target: GST-pICln S193, 195, 197D (phospho-mimicking aspartate mutant) (human) (UniProt P54105); assay: affinity purification with mass spectrometry; 5 μg GST-pICln wt or mutants incubated with 1 mg HEK293T S100 extract overnight at 4°C, glutathione sepharose 4B for 4 h, on-bead digestion, relative quantification by LC-MS/MS normalised to pICln; only the target purified

| binding [1] | binding [2] | binding [3] | binding [4] | Substance |
| --- | --- | --- | --- | --- |
| binds | binds | – | – | SmD2, endogenous (from UniProt P62316 1-118) |
| – | – | binds | – | chloride conductance regulatory protein (pICln), endogenous (from UniProt P54105 1-237) |
| – | – | binds | – | Protein arginine N-methyltransferase 5 (PRMT5), endogenous (from UniProt O14744 1-637) (enzyme) |
| binds | binds | – | binds | SmD3, endogenous (from UniProt P62318 1-126) |
| – | – | binds | – | methylosome protein 50 (MEP50/WD45), endogenous (from UniProt Q9BQA1 1-342) |

Results are given in words; binding and its absence hold for the method and conditions named. In cells and extracts the contact can be indirect. A yes stands for co-enrichment or nearness to the bait. Other partners may have been found. For some assays here: Sequences can lack the tags named with a protein.
